Holding throughout (assay): affinity purification with mass spectrometry; Flag immunoprecipitation (anti-Flag antibody, Protein G Sepharose) from metaphase-arrested Xenopus CSF egg extracts expressing 2xFlag-huWdr8 constructs from added mRNA; 23 °C; washes TBS-T and TBS; dimethyl labelling against control IgG pull-down
The target in one experiment is T1, 2xFlag-196/197AA (human) (UniProt Q9P2S5).
T1 sequence: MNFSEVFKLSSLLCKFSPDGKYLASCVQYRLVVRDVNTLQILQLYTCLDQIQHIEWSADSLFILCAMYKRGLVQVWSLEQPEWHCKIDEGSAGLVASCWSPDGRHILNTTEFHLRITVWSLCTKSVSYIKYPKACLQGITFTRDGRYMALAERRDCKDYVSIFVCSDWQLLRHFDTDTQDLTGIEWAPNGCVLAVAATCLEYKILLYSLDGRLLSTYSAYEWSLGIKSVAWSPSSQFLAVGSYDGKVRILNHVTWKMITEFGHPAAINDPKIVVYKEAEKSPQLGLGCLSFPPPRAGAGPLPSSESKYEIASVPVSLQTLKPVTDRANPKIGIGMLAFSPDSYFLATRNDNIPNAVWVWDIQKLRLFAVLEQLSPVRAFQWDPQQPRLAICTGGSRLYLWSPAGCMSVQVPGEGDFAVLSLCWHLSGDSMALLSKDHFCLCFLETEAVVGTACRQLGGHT

Protein sequences, listed by entry. Tags and fused reporters are not part of them.
UniProt P23330: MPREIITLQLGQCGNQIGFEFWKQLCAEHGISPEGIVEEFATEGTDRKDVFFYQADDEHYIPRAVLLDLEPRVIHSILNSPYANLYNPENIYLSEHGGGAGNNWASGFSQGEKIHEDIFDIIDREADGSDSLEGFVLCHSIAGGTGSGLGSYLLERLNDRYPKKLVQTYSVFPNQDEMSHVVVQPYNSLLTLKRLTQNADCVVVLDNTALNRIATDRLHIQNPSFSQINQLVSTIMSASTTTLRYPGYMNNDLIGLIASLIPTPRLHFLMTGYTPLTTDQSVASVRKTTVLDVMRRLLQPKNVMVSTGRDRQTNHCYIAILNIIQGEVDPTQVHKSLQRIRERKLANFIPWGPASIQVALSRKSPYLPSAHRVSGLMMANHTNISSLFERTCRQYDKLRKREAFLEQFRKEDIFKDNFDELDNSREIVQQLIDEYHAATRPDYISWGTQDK

Another experiment addresses T2, 2xFlag-359/360AA (human) (UniProt Q9P2S5).
T2 sequence: T1 sequence with A196W, A197D, W359A, D360A

Experiment [1] deals with T3, 2xFlag-huWdr8 wild-type (human) (UniProt Q9P2S5).
T3 sequence: T1 sequence with A196W, A197D

Residue numbers refer to the chain shown, from its start. Results are given in words; binding and its absence hold for the method and conditions named. In cells and extracts the contact can be indirect. A yes stands for co-enrichment or nearness to the bait. Other partners may have been found. A no says only that the protein was not detected with the bait. Where a sequence is shown, tags or fusion partners need not be part of it.

In the case of γ-tubulin (from UniProt P23330 1-451), the binding result (with 2xFlag-196/197AA (human); in the experiment with 2xFlag-359/360AA (human); in experiment [1]) was “binds” in each case.

Consider SSX2IP, for which the figures for the binding result (in the experiment with 2xFlag-196/197AA (human); with 2xFlag-359/360AA (human); in experiment [1]) were “no binding”, “no binding” and “binds”, respectively.

As for Nedd1, the binding entry (with 2xFlag-196/197AA (human); with 2xFlag-359/360AA (human); in experiment [1]) was “binds” in each case.

With kinesin-14, in experiment [1], the binding result is recorded as “no binding”.

For the origin of these results see article PMC5253655.
